According to publication PMC5897347:
Results are given in words; binding and its absence hold for the method and conditions named. In cells and extracts the contact can be indirect. Some binding calls cover weakened binding; strength is not graded here. Blank lines part the entries; values can stand above or below the substance they belong to.

By UniProt entry, the sequences of proteins in these tests, tags left out.
UniProt Q99873: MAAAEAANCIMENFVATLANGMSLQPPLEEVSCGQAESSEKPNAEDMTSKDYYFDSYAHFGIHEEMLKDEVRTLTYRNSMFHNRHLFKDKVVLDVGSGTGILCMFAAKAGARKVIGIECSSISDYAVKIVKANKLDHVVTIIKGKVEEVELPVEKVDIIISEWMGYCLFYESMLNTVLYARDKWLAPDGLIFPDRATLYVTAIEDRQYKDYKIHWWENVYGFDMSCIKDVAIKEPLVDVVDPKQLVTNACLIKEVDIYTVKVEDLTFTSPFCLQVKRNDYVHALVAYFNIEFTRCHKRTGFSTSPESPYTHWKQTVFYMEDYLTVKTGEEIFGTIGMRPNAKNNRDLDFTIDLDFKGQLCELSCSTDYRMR
UniProt Q9JIF0: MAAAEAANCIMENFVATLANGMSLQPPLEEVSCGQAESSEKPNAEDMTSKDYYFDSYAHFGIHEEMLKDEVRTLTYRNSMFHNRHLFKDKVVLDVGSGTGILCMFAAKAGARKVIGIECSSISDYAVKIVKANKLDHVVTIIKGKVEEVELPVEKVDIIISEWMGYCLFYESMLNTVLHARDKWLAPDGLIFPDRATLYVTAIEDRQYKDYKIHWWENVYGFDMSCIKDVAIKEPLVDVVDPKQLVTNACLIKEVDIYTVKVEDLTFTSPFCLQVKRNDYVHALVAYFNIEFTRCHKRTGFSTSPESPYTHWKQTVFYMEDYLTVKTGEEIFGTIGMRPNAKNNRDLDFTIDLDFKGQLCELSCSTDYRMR
UniProt Q99684: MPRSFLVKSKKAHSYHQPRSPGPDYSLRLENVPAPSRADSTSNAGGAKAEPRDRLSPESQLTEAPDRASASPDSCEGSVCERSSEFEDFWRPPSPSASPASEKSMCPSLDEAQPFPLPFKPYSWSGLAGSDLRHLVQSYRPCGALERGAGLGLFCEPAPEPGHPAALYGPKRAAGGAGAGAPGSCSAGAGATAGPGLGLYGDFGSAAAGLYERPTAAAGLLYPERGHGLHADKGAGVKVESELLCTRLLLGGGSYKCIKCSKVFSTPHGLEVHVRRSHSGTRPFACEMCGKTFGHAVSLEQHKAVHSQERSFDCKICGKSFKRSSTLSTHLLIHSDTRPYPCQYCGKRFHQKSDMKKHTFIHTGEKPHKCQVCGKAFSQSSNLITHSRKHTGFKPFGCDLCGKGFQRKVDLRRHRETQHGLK
UniProt Q12888: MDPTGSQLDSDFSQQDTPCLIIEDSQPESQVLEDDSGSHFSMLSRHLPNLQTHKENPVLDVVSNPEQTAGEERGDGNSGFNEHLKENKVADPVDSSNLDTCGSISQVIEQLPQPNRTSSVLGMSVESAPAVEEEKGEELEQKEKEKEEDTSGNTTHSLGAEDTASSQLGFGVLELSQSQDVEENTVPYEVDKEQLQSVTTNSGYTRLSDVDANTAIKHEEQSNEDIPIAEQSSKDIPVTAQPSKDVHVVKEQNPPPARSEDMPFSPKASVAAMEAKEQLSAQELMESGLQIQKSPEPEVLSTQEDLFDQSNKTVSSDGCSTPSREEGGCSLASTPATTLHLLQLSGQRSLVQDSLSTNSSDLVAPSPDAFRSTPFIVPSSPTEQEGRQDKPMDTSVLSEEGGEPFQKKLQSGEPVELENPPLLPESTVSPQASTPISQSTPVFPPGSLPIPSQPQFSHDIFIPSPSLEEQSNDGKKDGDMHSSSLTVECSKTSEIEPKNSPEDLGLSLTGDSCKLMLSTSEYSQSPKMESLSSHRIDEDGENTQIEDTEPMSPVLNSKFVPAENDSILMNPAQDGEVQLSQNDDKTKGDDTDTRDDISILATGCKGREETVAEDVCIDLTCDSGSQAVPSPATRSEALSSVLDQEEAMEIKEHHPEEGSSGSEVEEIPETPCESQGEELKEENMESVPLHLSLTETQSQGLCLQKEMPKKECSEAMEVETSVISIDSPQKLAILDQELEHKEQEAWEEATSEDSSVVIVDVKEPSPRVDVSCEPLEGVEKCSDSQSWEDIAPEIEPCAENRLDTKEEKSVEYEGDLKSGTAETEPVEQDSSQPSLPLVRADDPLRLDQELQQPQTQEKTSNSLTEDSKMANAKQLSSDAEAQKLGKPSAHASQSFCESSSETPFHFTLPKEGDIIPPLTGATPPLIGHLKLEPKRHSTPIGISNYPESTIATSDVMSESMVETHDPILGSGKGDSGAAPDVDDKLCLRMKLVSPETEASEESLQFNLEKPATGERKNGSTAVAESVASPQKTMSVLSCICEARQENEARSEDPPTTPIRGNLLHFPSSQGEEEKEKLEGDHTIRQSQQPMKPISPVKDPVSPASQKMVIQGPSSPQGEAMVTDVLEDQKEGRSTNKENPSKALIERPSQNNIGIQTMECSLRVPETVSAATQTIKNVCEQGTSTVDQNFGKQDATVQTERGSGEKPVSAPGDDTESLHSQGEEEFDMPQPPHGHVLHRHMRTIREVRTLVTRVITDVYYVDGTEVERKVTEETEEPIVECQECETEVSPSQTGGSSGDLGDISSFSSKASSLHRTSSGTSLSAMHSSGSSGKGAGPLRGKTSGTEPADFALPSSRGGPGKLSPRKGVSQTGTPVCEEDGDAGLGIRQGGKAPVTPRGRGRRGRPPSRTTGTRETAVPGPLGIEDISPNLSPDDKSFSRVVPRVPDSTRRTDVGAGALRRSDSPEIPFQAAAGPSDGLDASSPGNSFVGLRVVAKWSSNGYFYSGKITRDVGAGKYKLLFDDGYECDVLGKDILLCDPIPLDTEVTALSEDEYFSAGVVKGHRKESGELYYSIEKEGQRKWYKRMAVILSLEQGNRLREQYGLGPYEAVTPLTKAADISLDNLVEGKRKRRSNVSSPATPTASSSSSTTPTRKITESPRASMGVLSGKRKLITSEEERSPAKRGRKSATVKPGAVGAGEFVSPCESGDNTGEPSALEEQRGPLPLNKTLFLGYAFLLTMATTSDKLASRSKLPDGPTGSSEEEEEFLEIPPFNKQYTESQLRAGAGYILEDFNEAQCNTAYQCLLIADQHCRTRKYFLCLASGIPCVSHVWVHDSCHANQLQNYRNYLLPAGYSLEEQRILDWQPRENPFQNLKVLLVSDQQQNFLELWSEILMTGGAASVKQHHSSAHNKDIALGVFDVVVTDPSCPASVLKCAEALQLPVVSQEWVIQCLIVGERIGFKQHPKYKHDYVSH
UniProt P70399: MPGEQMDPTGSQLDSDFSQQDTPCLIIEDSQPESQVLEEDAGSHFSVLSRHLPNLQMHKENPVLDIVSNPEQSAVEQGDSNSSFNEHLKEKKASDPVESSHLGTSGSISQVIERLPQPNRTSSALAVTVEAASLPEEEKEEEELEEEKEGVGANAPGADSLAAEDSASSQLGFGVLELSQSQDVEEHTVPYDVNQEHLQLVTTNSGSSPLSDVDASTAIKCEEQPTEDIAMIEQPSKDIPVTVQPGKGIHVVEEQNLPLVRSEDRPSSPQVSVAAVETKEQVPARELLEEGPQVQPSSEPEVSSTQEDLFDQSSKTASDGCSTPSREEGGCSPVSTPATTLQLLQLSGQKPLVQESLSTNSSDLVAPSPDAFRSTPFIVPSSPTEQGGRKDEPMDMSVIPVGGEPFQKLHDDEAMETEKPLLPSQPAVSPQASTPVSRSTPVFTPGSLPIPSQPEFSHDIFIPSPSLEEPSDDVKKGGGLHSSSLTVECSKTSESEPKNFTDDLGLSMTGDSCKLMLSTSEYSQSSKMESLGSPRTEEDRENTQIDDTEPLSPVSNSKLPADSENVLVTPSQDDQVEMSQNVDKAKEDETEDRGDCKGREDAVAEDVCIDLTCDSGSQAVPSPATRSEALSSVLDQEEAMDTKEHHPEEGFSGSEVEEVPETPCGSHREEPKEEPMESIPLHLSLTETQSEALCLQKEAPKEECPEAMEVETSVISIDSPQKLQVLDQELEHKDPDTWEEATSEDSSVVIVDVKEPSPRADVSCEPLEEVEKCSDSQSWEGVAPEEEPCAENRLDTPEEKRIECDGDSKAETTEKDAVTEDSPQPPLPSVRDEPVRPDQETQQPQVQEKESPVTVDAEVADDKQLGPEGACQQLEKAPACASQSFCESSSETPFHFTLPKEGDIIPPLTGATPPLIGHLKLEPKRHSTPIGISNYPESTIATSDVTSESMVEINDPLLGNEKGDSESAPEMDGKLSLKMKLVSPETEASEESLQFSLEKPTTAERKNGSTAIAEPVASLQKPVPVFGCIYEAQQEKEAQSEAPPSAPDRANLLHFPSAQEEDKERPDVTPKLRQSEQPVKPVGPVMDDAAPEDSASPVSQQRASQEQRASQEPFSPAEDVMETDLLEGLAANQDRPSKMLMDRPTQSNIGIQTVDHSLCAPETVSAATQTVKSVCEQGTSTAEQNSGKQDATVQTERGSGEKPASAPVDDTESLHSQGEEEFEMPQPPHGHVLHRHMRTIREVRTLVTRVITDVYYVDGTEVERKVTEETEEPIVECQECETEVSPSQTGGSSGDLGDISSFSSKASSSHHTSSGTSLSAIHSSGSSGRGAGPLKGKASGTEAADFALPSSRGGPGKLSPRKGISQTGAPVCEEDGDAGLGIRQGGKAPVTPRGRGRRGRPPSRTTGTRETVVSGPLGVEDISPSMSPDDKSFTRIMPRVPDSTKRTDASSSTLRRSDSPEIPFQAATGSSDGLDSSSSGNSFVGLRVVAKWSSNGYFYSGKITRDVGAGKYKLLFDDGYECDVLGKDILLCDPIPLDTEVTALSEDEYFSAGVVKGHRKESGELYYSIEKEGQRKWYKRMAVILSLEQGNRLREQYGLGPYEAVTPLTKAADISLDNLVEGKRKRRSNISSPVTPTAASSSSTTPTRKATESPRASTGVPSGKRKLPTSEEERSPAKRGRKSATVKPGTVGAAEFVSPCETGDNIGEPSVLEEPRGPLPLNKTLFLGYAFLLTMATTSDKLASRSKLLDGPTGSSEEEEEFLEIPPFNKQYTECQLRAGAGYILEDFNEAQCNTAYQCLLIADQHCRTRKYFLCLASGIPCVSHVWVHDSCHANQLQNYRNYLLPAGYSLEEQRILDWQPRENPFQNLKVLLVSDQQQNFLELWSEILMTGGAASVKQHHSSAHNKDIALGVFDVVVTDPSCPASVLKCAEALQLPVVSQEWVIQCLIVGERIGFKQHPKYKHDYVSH

Columns and labels:
[1] = molecular target: Protein arginine methyltransferase 1 (PRMT1) (human (endogenous in 293T, SupT1, Jurkat)) (UniProt Q99873); assay: co-IP; Jurkat cells, parental and GFI1-deficient (Supplementary Fig. 7a-d); PRMT1 with MRE11 and 53BP1
[2] = molecular target: PRMT1 (mouse thymocytes) (mouse (endogenous in thymocytes)) (UniProt Q9JIF0); assay: co-IP; nuclear extracts of thymocytes of Gfi1 WT mice; PRMT1 immunoprecipitated and blotted for MRE11, and MRE11 immunoprecipitated and blotted for PRMT1; PRMT1 with 53BP1 likewise (compared with Gfi1 KO)
[3] = molecular target: GFI1 (endogenous, human T-cell lines) (human (endogenous in SupT1, Jurkat)) (UniProt Q99684); assay: co-IP; endogenous GFI1 immunoprecipitated from non-transfected SupT1 and Jurkat cells, blotted for MRE11 and PRMT1
[4] = molecular target: GFI1-Flag fusion protein (full length GFI1) (UniProt Q99684); assay: co-IP; GFI1-Flag and its variants immunoprecipitated from 293T cells, blotted for endogenous proteins; also in the presence or absence of benzonase and at times after 5 Gy IR

- binding [1]: binds
Substance: 53BP1 (Jurkat cells) (from UniProt Q12888 1-1972)

- binding [2]: binds
Substance: 53BP1 (mouse thymocytes) (from UniProt P70399 1-1969)

- binding [3]: binds
- binding [4]: binds
Substance: Protein arginine methyltransferase 1 (PRMT1) (from UniProt Q99873 1-371) (enzyme)
